Measurements published in paper PMC12589423.
Results are given in words; binding and its absence hold for the method and conditions named. In cells and extracts the contact can be indirect. Some binding calls cover weakened binding; strength is not graded here. Where a sequence is shown, tags or fusion partners need not be part of it.

By UniProt entry, the sequences of proteins in these tests, tags left out.
UniProt O95573: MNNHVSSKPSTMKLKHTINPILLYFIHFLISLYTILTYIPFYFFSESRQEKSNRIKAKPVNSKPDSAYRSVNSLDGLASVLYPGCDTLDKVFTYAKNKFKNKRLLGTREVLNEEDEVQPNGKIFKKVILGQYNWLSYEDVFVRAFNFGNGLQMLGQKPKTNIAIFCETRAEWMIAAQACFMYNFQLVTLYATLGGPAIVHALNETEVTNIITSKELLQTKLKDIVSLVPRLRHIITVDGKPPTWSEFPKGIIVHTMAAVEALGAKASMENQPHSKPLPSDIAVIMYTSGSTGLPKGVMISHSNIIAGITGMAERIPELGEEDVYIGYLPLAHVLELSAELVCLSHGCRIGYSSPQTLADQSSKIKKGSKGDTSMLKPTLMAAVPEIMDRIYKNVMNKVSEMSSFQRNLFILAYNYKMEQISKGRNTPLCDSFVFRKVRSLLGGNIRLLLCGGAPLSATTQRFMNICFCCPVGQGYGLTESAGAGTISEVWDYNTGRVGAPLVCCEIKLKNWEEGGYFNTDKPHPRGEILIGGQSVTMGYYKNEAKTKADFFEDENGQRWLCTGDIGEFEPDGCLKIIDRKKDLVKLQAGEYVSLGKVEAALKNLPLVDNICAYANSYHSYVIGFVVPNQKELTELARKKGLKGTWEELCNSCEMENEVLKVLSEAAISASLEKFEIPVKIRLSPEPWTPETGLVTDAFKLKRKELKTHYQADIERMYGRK

T1: TMEM166-GFP (human (cDNA library of Huh7 cells)) (UniProt Q9H8M9)
T1 sequence: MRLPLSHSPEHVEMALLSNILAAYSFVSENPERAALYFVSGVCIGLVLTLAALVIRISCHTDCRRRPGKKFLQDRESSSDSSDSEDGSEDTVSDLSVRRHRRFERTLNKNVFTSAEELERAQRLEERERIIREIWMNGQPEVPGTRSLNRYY


Assays:
[1] = molecular target: T1, TMEM166-GFP (human (cDNA library of Huh7 cells)); experiment: co-IP; HEK293T cells transfected with plasmids for 24 h; RIPA lysates precleared with protein G sepharose, incubated with anti-GFP affinity beads overnight, washed five times; Flag-tagged partner detected by western blotting
[2] = molecular target: GFP-ACSL3 (human (cDNA library of Huh7 cells)) (UniProt O95573); experiment: as above

binding [1] | binding [2] | Molecule
binds | – | Flag-ACSL3 (from UniProt O95573 1-720)
– | binds | Flag-TMEM166 (protein, UniProt Q9H8M9 1-152) MRLPLSHSPEHVEMALLSNILAAYSFVSENPERAALYFVSGVCIGLVLTLAALVIRISCHTDCRRRPGKKFLQDRESSSDSSDSEDGSEDTVSDLSVRRHRRFERTLNKNVFTSAEELERAQRLEERERIIREIWMNGQPEVPGTRSLNRYY
